The source of these data is PMC6054149.

By UniProt entry, the sequences of proteins in these tests, tags left out.
UniProt P42736: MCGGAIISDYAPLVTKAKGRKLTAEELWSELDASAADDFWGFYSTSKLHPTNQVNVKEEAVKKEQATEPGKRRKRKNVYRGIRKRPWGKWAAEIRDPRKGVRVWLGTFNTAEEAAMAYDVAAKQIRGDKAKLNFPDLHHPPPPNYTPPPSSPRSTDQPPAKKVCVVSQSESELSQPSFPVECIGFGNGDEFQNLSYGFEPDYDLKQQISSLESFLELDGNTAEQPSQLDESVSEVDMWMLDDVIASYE
UniProt Q8S307: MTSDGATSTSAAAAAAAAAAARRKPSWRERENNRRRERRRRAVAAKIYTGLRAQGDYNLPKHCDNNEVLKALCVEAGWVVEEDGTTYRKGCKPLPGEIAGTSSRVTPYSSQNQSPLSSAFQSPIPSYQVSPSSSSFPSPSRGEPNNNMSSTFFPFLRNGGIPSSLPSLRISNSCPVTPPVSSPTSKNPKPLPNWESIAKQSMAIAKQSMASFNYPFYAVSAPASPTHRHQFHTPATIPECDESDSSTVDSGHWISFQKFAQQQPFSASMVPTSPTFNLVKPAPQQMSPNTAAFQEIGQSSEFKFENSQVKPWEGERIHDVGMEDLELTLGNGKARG

No constants are given. Whether binding was seen depends on the method and setting. In cells and extracts the contact can be indirect. Some binding calls cover weakened binding; strength is not graded here. For part of these data: Sequences can lack the tags named with a protein.

Test [1] addresses T1, ARF6-nLUC fusion protein (Arabidopsis thaliana) (UniProt Q9ZTX8).
T1 sequence: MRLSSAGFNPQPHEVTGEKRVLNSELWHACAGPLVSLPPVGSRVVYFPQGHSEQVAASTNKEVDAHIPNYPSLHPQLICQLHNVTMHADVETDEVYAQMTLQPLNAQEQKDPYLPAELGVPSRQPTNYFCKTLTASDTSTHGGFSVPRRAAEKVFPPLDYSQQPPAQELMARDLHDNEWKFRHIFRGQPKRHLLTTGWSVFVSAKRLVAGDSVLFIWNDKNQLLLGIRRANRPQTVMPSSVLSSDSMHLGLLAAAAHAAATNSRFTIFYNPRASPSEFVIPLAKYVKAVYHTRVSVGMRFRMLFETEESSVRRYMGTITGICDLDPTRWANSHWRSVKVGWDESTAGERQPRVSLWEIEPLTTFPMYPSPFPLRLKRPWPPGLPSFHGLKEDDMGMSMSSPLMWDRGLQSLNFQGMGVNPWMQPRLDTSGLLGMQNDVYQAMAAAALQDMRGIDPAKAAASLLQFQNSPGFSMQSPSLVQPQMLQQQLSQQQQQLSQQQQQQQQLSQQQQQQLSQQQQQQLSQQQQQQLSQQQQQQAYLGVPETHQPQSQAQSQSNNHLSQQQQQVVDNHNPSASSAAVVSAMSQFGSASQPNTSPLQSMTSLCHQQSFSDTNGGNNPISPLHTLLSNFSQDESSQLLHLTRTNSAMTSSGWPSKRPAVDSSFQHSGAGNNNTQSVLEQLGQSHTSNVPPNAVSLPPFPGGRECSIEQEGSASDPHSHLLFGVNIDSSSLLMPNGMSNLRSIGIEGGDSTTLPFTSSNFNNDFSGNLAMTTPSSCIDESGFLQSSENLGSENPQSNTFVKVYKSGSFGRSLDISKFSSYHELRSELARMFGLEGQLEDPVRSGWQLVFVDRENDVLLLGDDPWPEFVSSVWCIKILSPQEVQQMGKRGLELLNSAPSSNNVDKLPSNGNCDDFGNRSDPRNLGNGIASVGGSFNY
Kind of test: split reporter; firefly luciferase complementation imaging (LCI) in tobacco leaves infiltrated with Agrobacterium; nLUC and cLUC fusions.

The target in test [2] is ERF72 fused to the C-terminal fragment of luciferase (c-LUC) (Arabidopsis thaliana) (UniProt P42736). The test is described as above.
Test [3] has as its target MBP-ERF72 (Arabidopsis thaliana) (UniProt P42736). Nature of the test: pull-down; crude E. coli protein extracts mixed in binding buffer (10 mM Tris-HCl pH 7.5, 150 mM NaCl, 2 mM KCl, 0.1% Tween-20), 4 °C, 1 h; MBP or MBP-ERF72 as bait on amylose resin; BZR1-MYC as prey.

On to “ERF72 fused to the C-terminal fragment of luciferase (c-LUC) (from UniProt P42736 1-248)”, for which the binding result in test [1] is listed as “binds”.

As for BZR1-nLUC (from UniProt Q8S307 1-336), in test [2], the binding result is “binds”.

Consider “recombinant MYC-tagged BZR1 (from UniProt Q8S307 1-336)”, for which the binding entry in test [3] is on record as “binds”.
